The campaign covered roughly 350,000 compounds. About 220 (0.063%) were called active. Inconclusive results, whose numbers are uncertain, are shown with a selection of clear calls. Calls follow the shape of the dose curve; as a rule, active = well fitted activation curve with a large enough effect; inconclusive = small, poorly fitted or top-dose-only effect; inactive = no such curve, though single readings can be large or run the other way. Where the call is inconclusive, the potency comes from a doubtful curve fit.
Test: qHTS for Activators of Integrin-Mediated Alleviation for Muscular Dystrophy; also: nearly all actives have a fitted effect of over 60% in size;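 as to activation: 100% = response of the positive control SU9516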
Settings: alpha7betagal myoblasts, beta-gal FDG fluorescence, 48 h; activation: at 38.3 µM (top of the series)
Procedure, shortened: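 alpha7betagal+/- myoblasts (passage 13, 250/well) treated 48 h at 37C with compounds at 1:260 dilution of DMSO stock. Lysed, then beta-galactosidase activity read as FDG fluorescence (ex 480/em 540) after 30 min, with pre-read for autofluorescence.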
Potency is read from the fitted curve at half-maximal effect.

Potency, inconclusive:
Cc1ccccc1NC(=O)N1CCN(C(=O)c2ccco2)CC1 5.01 µM [activator, single point]
COc1ccc2[nH]c(C(=O)N3CCN(c4ccccc4F)CC3)c(C)c2c1 7.08 µM [activator, partial curve]
CC1CCCCN1C(=S)NCc1ccco1 (stereo unspecified) 5.01 µM [activator, single point]
O=C(c1cc2cc(Cl)ccc2oc1=O)N1CCCCCCC1 22.4 µM [activator, single point]
O=C(Nc1ccc(Cl)cc1Cl)C1=Cc2ccccc2OC1 3.55 µM [activator, partial curve, poor fit]
CCOc1cc(C2C(C(=O)c3ccco3)=C(O)C(=O)N2CC2CCCO2)ccc1O (stereo unspecified) 2.82 µM [activator, partial curve, poor fit]
CN(CC(=O)NCc1ccccc1)CC(=O)Nc1ccc(Cl)c(C(F)(F)F)c1 28.2 µM [activator, single point]
Cc1cc(C)n(-c2nnc(C)n2N)n1 0.447 µM [activator, partial curve, poor fit]
Cc1ccc(N=Cc2c(O)c3ccccc3oc2=O)c(C)c1 0.282 µM [activator, full curve, poor fit]
Cc1cccc(NC(=S)N(Cc2ccc(Br)cc2)Cc2ccc(C(=O)O)cc2)c1 5.01 µM [activator, single point]
COc1ccc(S(=O)(=O)N2CCC(C(=O)N3CCOCC3)CC2)cc1Cl 5.01 µM [activator, single point]
COc1cccc(/C=C/C(=O)N2CCN(c3ccccn3)CC2)c1 2 µM [activator, full curve, poor fit]
O=C(O)c1cc(-c2ccc(Br)s2)nc2ccccc12 28.2 µM [activator, single point]
Cc1ccc(Nc2cc(-n3nc(C)cc3C)ncn2)cc1 1.78 µM [activator, full curve, poor fit]
O=C(CSc1ccc(Cl)cc1)NNC(=O)c1ccco1 5.01 µM [activator, single point]
Cc1ccc(S(=O)(=O)CC(C)(O)CS(=O)(=O)c2ccc(C)cc2)cc1 5.01 µM [activator, single point]
COC(=O)c1ccc(NC(=O)C2C3CCC(C3)C2C(=O)O)cc1 (stereo unspecified) 14.1 µM [activator, partial curve, poor fit]
Nc1oc2ccc(F)cc2c(=O)c1C=O 3.16 µM [activator, single point]
CCOC(=O)C1=C(O)C(=O)N(c2ccc(S(N)(=O)=O)cc2)C1c1cccc([N+](=O)[O-])c1 (stereo unspecified) 11.2 µM [activator, partial curve, poor fit]
CCC(CC)COC(=O)C1=C(C)NC(=O)NC1c1cc(OC)ccc1OC (stereo unspecified) 15.8 µM [activator, single point]
Cc1cc(N2CCN(C)CC2)nc2ccc(NC(=O)CCC3CCCC3)cc12 22.4 µM [activator, single point]
O=C(Nc1ccon1)Nc1cccc(Cl)c1Cl 5.01 µM [activator, single point]
COc1ccc(NC(=O)c2c(Cl)nc3ccccn23)cc1 7.08 µM [activator, partial curve, poor fit]
COCCN(C(=O)CCc1ccccc1OC)c1nnc(-c2cccnc2)s1 5.01 µM [activator, single point]
COc1cccc(N=C(N)N)c1 28.2 µM [activator, single point]
Nc1[nH][nH]c(=O)c1N=Nc1ccc2c(c1)OCO2 17.8 µM [activator, partial curve, poor fit]
CNC(=O)Nc1cc(NC(=O)NC)cc(C(F)(F)F)c1 17.8 µM [activator, partial curve, poor fit]
CC(C)Cn1nc(NC(=O)c2cccs2)c2cc3ccccc3nc21 5.01 µM [activator, single point]
CCCCNC(=O)c1cc(-c2ccc(F)cc2)on1 5.01 µM [activator, single point]
COc1cc(NC(=O)C(c2ccccc2)c2ccccc2)c(C(=O)O)cc1OC 11.2 µM [activator, partial curve, poor fit]
CCc1ccc(S(=O)(=O)NCCOc2cccc3cccnc23)cc1 2.24 µM [activator, full curve, poor fit]
COCCNC(=S)N/N=C/c1ccc(OCc2ccc(C(=O)OC)cc2)cc1 3.16 µM [activator, single point]
Cn1ncc(Br)c1N1C(=O)CCC1=O 3.16 µM [activator, single point]
CC1CCN(C(=O)CSc2n[nH]c(-c3cccs3)n2)CC1 28.2 µM [activator, single point]
COC(=O)c1ccc(CN(c2ccccc2Cl)S(C)(=O)=O)cc1 1.12 µM [activator, partial curve, poor fit]
COc1cccc(CNC(=O)CCC2CCCN(C(=O)c3cc(C4CC4)[nH]n3)C2)c1 (stereo unspecified) 28.2 µM [activator, single point]
O=C(N/N=C/c1ccc(Br)s1)c1ccccn1 3.55 µM [activator, partial curve, poor fit]
Cc1cc(C)n(C(=O)c2cccc([N+](=O)[O-])c2)n1 5.01 µM [activator, single point]
CN(C(=O)CSc1nnc(N)s1)C1CCCCC1 3.16 µM [activator, single point]
CN(Cc1ccccc1)C(=O)CCCn1c(=O)c2cccn2c2cccnc21 3.55 µM [activator, single point]
O=C1CSC(=S)N1c1ccc(O)cc1 3.16 µM [activator, single point]
O=C(Nc1ccc2c(c1)CCC2)c1ccccc1 15.8 µM [activator, single point]
COc1ccc(C(=O)OCC(=O)c2c(N)n(C)c(=O)n(C)c2=O)c(OC)c1OC 22.4 µM [activator, single point]
CCOC(=O)c1c2c([nH]c(=S)c1C#N)CCCC2 5.01 µM [activator, single point]
CC(=O)c1ccc(NC(=S)N2c3ccccc3CC2C)cc1 (stereo unspecified) 1.78 µM [activator, full curve, poor fit]
CNC(=S)Nc1cccc(C(=O)O)c1 12.6 µM [activator, single point]
CSc1ccc(CN2C(=O)NC3(CCCCCC3)C2=O)cc1 20 µM [activator, single point]
COc1ccc(CC(=O)NNC(=O)c2ccc(Br)o2)cc1 28.2 µM [activator, single point]

activation, inconclusive:
CCOc1ccc(-n2c(-c3ccccc3)c[n+]3c2CCCCC3)cc1 -62.1% [activator]

activation, inactive:
O=C(CCl)N1c2ccccc2SCC1c1ccccc1 (stereo unspecified) 0%
O=C1[C@@H]2Cc3c([nH]c4ccccc34)C(c3cccc([N+](=O)[O-])c3)N2C(=O)CN1CCCO (stereo partly specified) -39.6%
COc1ccc(CC(=O)NCc2n[nH]c(=S)n2-c2ccc(F)cc2)cc1 8.77%
COc1ccc(CC(=O)c2ccc(O)cc2O)cc1 -17.9%
COC(=O)C1=C(C)N(Cc2ccccc2)C(=NCCc2ccccn2)N[C@H]1c1cccc(C(F)(F)F)c1 -31.7%
CCOc1cc(NC(=O)c2cccs2)c(OCC)cc1NC(=O)CCC(=O)NCC1CCCO1 (stereo unspecified) -3%
C=CCn1c(-c2cccn(Cc3ccc(Cl)cc3)c2=O)n[nH]c1=S 15.5%
COC(=O)c1cc(CN2CCN(c3ccccc3C)CC2)ccc1O -28.8%
COC(=O)[C@@H]1C[C@@H]2CC[C@@H](O)C[C@@H]2N1Cc1ccc(OC)cc1 -2.11%
CCN(c1ccccc1)S(=O)(=O)c1ccc(C(=O)Nc2nnc(CSC)o2)cc1 -47.2%
CN1CCN(S(=O)C23CC4CC(CC(C4)C2)C3)CC1 (stereo unspecified) 13.7%
CC(C(=O)OCC(=O)N1CCN(c2ccccc2)CC1)N1C(=O)c2ccccc2C1=O (stereo unspecified) -15.3%
COc1ccc(CCN2CC(C(=O)OCC(=O)c3c(N)n(CC(C)C)c(=O)n(C)c3=O)CC2=O)cc1OC (stereo unspecified) 18.3%
COc1ccccc1C(=O)NCC(=O)OCC(=O)c1cccc2ccccc12 -17.1%
CN(C)S(=O)(=O)c1ccc(NC(=O)Cn2nc(-c3ccc4c(c3)OCCO4)ccc2=O)cc1 -3.64%
COc1cccc(NC(=O)CCSc2nnc3scc(-c4ccccc4)n23)c1 -31.2%
CC(C)N1CC(C(=O)Nc2cc(Cl)cc(Cl)c2)CC1=O (stereo unspecified) -5.18%
CCCc1nc2ccccc2c(=O)n1/N=C/c1ccccc1O -4.69%
Cc1ccc2cc(/C=C/C(=O)c3ccco3)c(Cl)nc2c1 -68.1%
CCSC1=N/C(=C\c2ccccc2)C(=O)N1c1ccc(OC)cc1 -10.8%
C=CCSc1nnc(-c2cc3c(-c4ccccc4)nn(C)c3s2)n1C 0%
CCO[C@@H]1OC(C(=O)N2CCN(C)CC2)=C[C@H](c2coc3ccccc3c2=O)[C@H]1CCCO 29.3%

Five entries drawn at random from the list so far, as already listed:
activation, inactive:
CCN(c1ccccc1)S(=O)(=O)c1ccc(C(=O)Nc2nnc(CSC)o2)cc1 -47.2%
COc1ccc(CC(=O)NCc2n[nH]c(=S)n2-c2ccc(F)cc2)cc1 8.77%
COc1ccc(CC(=O)c2ccc(O)cc2O)cc1 -17.9%
CN1CCN(S(=O)C23CC4CC(CC(C4)C2)C3)CC1 (stereo unspecified) 13.7%
CC(C(=O)OCC(=O)N1CCN(c2ccccc2)CC1)N1C(=O)c2ccccc2C1=O (stereo unspecified) -15.3%

Source: PubChem BioAssay AID624291 (National Center for Advancing Translational Sciences (NCATS), 2012)
